Experimental data: PubChem BioAssay AID504764 (Drosophila RNAi Screening Center, 2011)
In all, the deposit lists about 22,000 reagents; below is an unselected part of those that have a named target and a result. Of all reagents, 403 (1.9%) got an active call. 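Unnormalised raw counts per well; ratio z-scores behind the hit calls and whether each hit raises or lowers signal are not deposited.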 Entries without a mark were called inactive. Names joined by + are all predicted targets of the reagent. The record does not give: the amount of reagent.

Assay: 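Knock-downs that raise or lower a Notch target reporter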 (primary screen)
Cell system: Drosophila Kc167 cells
Reagents: long dsRNA against Drosophila genes
Time to read-out: about 5 days (4 days dsRNA, then 24 h after transfection)
Treatment: transfection of constitutively active membrane-tethered Notch lacking the extracellular domain, read 24 h later
Measured: 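Firefly luciferase from an E(spl)m3 reporter with active Notch, plus control-promoter and uninduced reporter wells for normalisation; unnormalised counts, duplicate wells a and b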
Scale: induced reporter light, run 1, well a and induced reporter light, run 1, well b: higher = more light from the Notch target reporter with active Notch; control promoter light, run 1, well a and control promoter light, run 1, well b: higher = more light from the viral control promoter (cell number, transfection, viability); uninduced reporter light, run 1, well a: higher = more light from the Notch target reporter without active Notch
Call rule: 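Hit if the duplicate-averaged log2 ratio of induced to control-promoter light gives a plate-wise z beyond ±2, or induced to uninduced beyond ±1.8; weak-control or discordant-duplicate wells dropped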
Calls: active = modifier hit (raised or lowered Notch signal); inactive = not a hit

gene knocked down	amplicon	induced reporter light, run 1, well a	induced reporter light, run 1, well b	control promoter light, run 1, well a	control promoter light, run 1, well b	uninduced reporter light, run 1, well a
CG10898 (GeneID 41384)	DRSC14279	1.42e5	1.22e5	84705	58970	9720
Nrg (GeneID 31792)	DRSC17573	79045	69065	94175	82130	5745
Nrg (GeneID 31792)	DRSC18688	1.59e5	1.41e5	2.19e5	2.30e5	14742
CG30487 (GeneID 246646)	DRSC05377	1.83e5	2.15e5	2.99e5	3.41e5	21028
nAChRalpha3 (GeneID 31767)	DRSC18800	1.29e5	1.37e5	2.40e5	2.21e5	11060
mid (GeneID 33770)	DRSC02977	1.92e5	1.53e5	1.72e5	1.74e5	11065
Nmd3 (GeneID 31195)	DRSC18687	1.75e5	1.69e5	3.02e5	2.49e5	13005
CG3632 (GeneID 32589)	DRSC19137	1.10e5	1.17e5	1.15e5	1.20e5	9110
CG3632 (GeneID 32589)	DRSC19871	1.90e5	1.80e5	2.40e5	2.56e5	15680
nerfin-2 (GeneID 41235)	DRSC14547	1.13e5	1.04e5	1.16e5	82410	6080
Hip14 (GeneID 39747)	DRSC10570	1.02e5	1.06e5	84750	92200	9980
CG14624 (GeneID 31068)	DRSC18634	84945	97965	1.16e5	1.11e5	8130
Pvf2 (GeneID 33994)	DRSC00968	1.53e5	1.42e5	2.19e5	2.20e5	10135
Pvf2 (GeneID 33994)	DRSC02283	71595	43160	55815	53535	3488
Arpc5 (GeneID 33444)	DRSC00730	1.08e5	87700	94970	55135	7420
CG13218 (GeneID 36177)	DRSC06340	87625	76995	1.01e5	1.12e5	8975
CG43328 (GeneID 246625)	DRSC05640	1.17e5	1.07e5	1.02e5	1.03e5	8670

No new results follow: 7 of the entries above.
gene knocked down	amplicon	induced reporter light, run 1, well a	induced reporter light, run 1, well b	control promoter light, run 1, well a	control promoter light, run 1, well b	uninduced reporter light, run 1, well a
Nrg (GeneID 31792)	DRSC18688	1.59e5	1.41e5	2.19e5	2.30e5	14742
CG30487 (GeneID 246646)	DRSC05377	1.83e5	2.15e5	2.99e5	3.41e5	21028
nAChRalpha3 (GeneID 31767)	DRSC18800	1.29e5	1.37e5	2.40e5	2.21e5	11060
mid (GeneID 33770)	DRSC02977	1.92e5	1.53e5	1.72e5	1.74e5	11065
Nmd3 (GeneID 31195)	DRSC18687	1.75e5	1.69e5	3.02e5	2.49e5	13005
CG3632 (GeneID 32589)	DRSC19137	1.10e5	1.17e5	1.15e5	1.20e5	9110
CG3632 (GeneID 32589)	DRSC19871	1.90e5	1.80e5	2.40e5	2.56e5	15680

The results go on:
gene knocked down	amplicon	induced reporter light, run 1, well a	induced reporter light, run 1, well b	control promoter light, run 1, well a	control promoter light, run 1, well b	uninduced reporter light, run 1, well a
Cep97 (GeneID 33610)	DRSC00637	2.03e5	2.07e5	2.13e5	2.07e5	20660
dsf (GeneID 33823)	DRSC03524	1.21e5	1.18e5	36955	35550	8610
CG8204 (GeneID 36728)	DRSC07106	1.16e5	1.02e5	1.39e5	1.28e5	10270
Arp6 (GeneID 32514)	DRSC19326	1.42e5	1.41e5	1.74e5	2.03e5	9825
Acph-1 (GeneID 48445)	DRSC14103	95665	88295	1.28e5	1.25e5	8110
Grik (GeneID 42476)	DRSC15846	1.35e5	1.32e5	1.72e5	1.87e5	11840
Grik (GeneID 42476)	DRSC15847	2.25e5	1.95e5	2.45e5	2.50e5	14450
Cht7 + tRNA:Cys-GCA-1-4 + tRNA:Lys-CTT-1-13	DRSC08021	1.57e5	1.72e5	1.47e5	1.79e5	12570
CG31776 (GeneID 33568)	DRSC00716	1.41e5	1.16e5	1.57e5	1.26e5	8495
Ggt-1 (GeneID 32839)	DRSC19993	93260	1.04e5	94925	57205	8560
isoQC (GeneID 40270)	DRSC11790	1.32e5	1.22e5	1.30e5	1.02e5	17155
CG5742 (GeneID 37072)	DRSC06949	85675	85475	1.59e5	1.63e5	6870
CG9757 (GeneID 41662)	DRSC16557	2.01e5	2.15e5	1.78e5	2.11e5	16370
Or33a (GeneID 34601)	DRSC03386	1.39e5	1.47e5	1.52e5	1.68e5	12470
Cyfip (GeneID 41861)	DRSC15679	96600	76150	78965	83955	5405
indra (GeneID 38159)	DRSC08558	1.20e5	1.16e5	2.27e5	2.34e5	14220
DNAlig3 (GeneID 41518)	DRSC15201	56885	59505	39200	36865	2880
CG42505 + CG42504 + CG31358	DRSC15235	1.53e5	1.14e5	89130	77010	8475
CG42505 + CG42504 + CG31358	DRSC15308	2.00e5	2.14e5	3.80e5	3.99e5	16030
CG42505 + CG42504 + CG31358	DRSC15309	88285	59280	73335	60055	3878
CG14451 (GeneID 40488)	DRSC11708	94215	90010	97605	72005	5270
CG3544 (GeneID 33252)	DRSC00613	2.00e5	2.19e5	2.25e5	2.44e5	18655
CG8565 (GeneID 32538)	DRSC20112	1.35e5	1.48e5	1.44e5	1.41e5	15105
sgll (GeneID 40925)	DRSC15442	71445	87930	79655	61735	6435
CG5196 (GeneID 41522)	DRSC15735	87320	84225	65320	51820	4850
CG9294 (GeneID 37491)	DRSC04537	46035	39060	38160	32255	2240
glob3 (GeneID 40726)	DRSC12261	1.20e5	1.48e5	1.93e5	1.48e5	9855
Rbbp5 + CG6434 (retired record)	DRSC10635	74170	85955	69195	61840	5320
Larp4B (GeneID 38399)	DRSC08192	41100	42095	63095	46615	3205
Cpsf6 (GeneID 38937)	DRSC10781	12565	8880	8835	3820	1182
CG10584 (GeneID 40324)	DRSC11624	1.55e5	1.51e5	1.25e5	1.24e5	8455
Eh (GeneID 42101)	DRSC16660	2.16e5	1.80e5	1.67e5	1.59e5	15515
Nos (GeneID 34495)	DRSC03381	2.72e5	2.25e5	1.98e5	2.13e5	16465
